Reference: article PMC7819943, “Rice protein-binding microarrays: a tool to detect cis-acting elements near promoter regions in rice”
The list shows a part of the results.

These sequences were tested against T1, OsSMF1 (Oryza sativa, UniProt Q6ZLB0 1-436) (assay: protein-binding microarray (RPBM); PBS, 2% BSA, 51.3 ng/ul salmon testes DNA, 50 uM zinc acetate, 200 nM TF, 25 C, 1 h; high values mean tight binding). Details: protein: recombinant; tags: N-terminal polyhistidine and DsRed monomer fusion (pET32a); chain copies: 2; label: CyDye5-dUTP incorporated in the synthesized complementary strand; 3' TTTTT single-stranded linker to array surface; dsDNA, one strand shown.
T1 sequence: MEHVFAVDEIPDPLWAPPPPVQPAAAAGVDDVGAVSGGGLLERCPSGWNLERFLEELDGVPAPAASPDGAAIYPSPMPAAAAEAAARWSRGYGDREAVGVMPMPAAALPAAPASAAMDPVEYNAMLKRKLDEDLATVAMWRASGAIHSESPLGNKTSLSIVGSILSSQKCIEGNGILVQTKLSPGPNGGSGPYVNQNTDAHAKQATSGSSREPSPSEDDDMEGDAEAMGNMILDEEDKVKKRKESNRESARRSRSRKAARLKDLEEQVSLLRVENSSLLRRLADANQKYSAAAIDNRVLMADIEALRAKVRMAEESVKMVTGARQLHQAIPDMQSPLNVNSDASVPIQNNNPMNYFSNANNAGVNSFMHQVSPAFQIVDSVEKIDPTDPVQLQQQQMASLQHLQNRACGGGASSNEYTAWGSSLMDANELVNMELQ
Method in brief: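 Transcription factors were made in E. coli BL21-CodonPlus as N-terminal fusions to a polyhistidine tag and DsRed, then purified on Ni–NTA. After primer extension with Cy5-dUTP and blocking with 2% BSA, a custom Agilent array was exposed for 1 h at 25 °C to 200 nM protein in PBS, 2% BSA, salmon testes DNA and 50 µM zinc acetate. Washed arrays were scanned on an Axon 4000B, and the binding signal is per-feature fluorescence intensity in arbitrary units.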

| Sequence | binding signal |
| --- | --- |
| CTCTTCTCCACCTCAACATTTAGCCGGCTTATAGCTACTACGGAGTCACCTAGTGCAG | 3960 fluorescence intensity (a.u.) |
| GCAACCGCGACGACCGATCCACGTGGCACCACCTCATTGGCGGAGTCACCTAGTGCAG | 29400 fluorescence intensity (a.u.) |
| ATTGTTTTGTCACACGAATAAGGATTATCTCGTTACATGTCGGAGTCACCTAGTGCAG | 3280 fluorescence intensity (a.u.) |
| ACTGGAGCTAACCGCTGACGTGGCATTCCACGTAGGCAACCGGAGTCACCTAGTGCAG | 42500 fluorescence intensity (a.u.) |
| TTCGTGCTCCTCCCGTGCCTCTCCCTGGTTGCCCGTGTGGCGGAGTCACCTAGTGCAG | 4000 fluorescence intensity (a.u.) |
| TGGCCCACATGTCAGTGGGACGTGGCCCAGCTCACCTCGTCGGAGTCACCTAGTGCAG | 7640 fluorescence intensity (a.u.) |
| CGTCTTTACGTGTTCTCAACTAAGCTTCTTTACGTGTTTTCGGAGTCACCTAGTGCAG | 3900 fluorescence intensity (a.u.) |
| GATTGTGTCATAGTTCTATAGTTGGAATTTGGTTTATCGTCGGAGTCACCTAGTGCAG | 30800 fluorescence intensity (a.u.) |
| AAAATCATACGAACGGAAAAGCAAAAGATAGAAGCCAAAACGGAGTCACCTAGTGCAG | 16500 fluorescence intensity (a.u.) |
| CACGGTCATGGACGACGTACGTACGTGTCTCCTCCATAAACGGAGTCACCTAGTGCAG | 4460 fluorescence intensity (a.u.) |
| ATCTCCTTGATTGCCACATCAACAGAACCGCGAACCATATCGGAGTCACCTAGTGCAG | 4430 fluorescence intensity (a.u.) |
| GATCCGGGACTCATCCCACGTGCCGCCTCGCCACCGCCGCCGGAGTCACCTAGTGCAG | 3750 fluorescence intensity (a.u.) |
| GAGACCGGTTATGACGCGACGGAGAAGACGTGGGCACGCGCGGAGTCACCTAGTGCAG | 3820 fluorescence intensity (a.u.) |
| AGTTGGTGGTGGCTTGGATGGATCCAACGTGGCATTTCCACGGAGTCACCTAGTGCAG | 14800 fluorescence intensity (a.u.) |
| CCTTAGCCTGGCTTAATTACCACATCAGCTCATTAATGGCCGGAGTCACCTAGTGCAG | 4360 fluorescence intensity (a.u.) |
| TCCAAGCTGACACCGCGACCCCACCGGCGTCGCGGTGGCTCGGAGTCACCTAGTGCAG | 3320 fluorescence intensity (a.u.) |
| CGTCTCCCTGCGCCGCCTCCCCTCCCTTCTCTCCCCATTCCGGAGTCACCTAGTGCAG | 3360 fluorescence intensity (a.u.) |
| AGACCCACGTCAGCGCCATTCAAGTCCATTCCTCCGTCACCGGAGTCACCTAGTGCAG | 19700 fluorescence intensity (a.u.) |
| GGGTAGGGTTGTGAGTTTGTGACGTCGTCCCCTGCAAAACCGGAGTCACCTAGTGCAG | 3480 fluorescence intensity (a.u.) |
| GCCGCCACCCACCCACAACCACCGCCGCCTCCGCTCCAGACGGAGTCACCTAGTGCAG | 3510 fluorescence intensity (a.u.) |
| CACGCATGTGGTGACTTCGTCAATTTCTCTAGGATTTGCCCGGAGTCACCTAGTGCAG | 3750 fluorescence intensity (a.u.) |

As entered above.
In binding signal, GGGTAGGGTTGTGAGTTTGTGACGTCGTCCCCTGCAAAACCGGAGTCACCTAGTGCAG shows 3480 fluorescence intensity (a.u.)
In binding signal, AGTTGGTGGTGGCTTGGATGGATCCAACGTGGCATTTCCACGGAGTCACCTAGTGCAG shows 14800 fluorescence intensity (a.u.)

Next part.

| Sequence | binding signal |
| --- | --- |
| TAGCTGATTTAACAACCGCCCGTTTCTTATTTTCGGGAATCGGAGTCACCTAGTGCAG | 32100 fluorescence intensity (a.u.) |
| ACTCACCTGCTGATAACCAGACGCTAAATTGGCAATTGTACGGAGTCACCTAGTGCAG | 38100 fluorescence intensity (a.u.) |
| TGTGCCACGTGGGAGCAAACACACCTGGCATAGGCCCAAGCGGAGTCACCTAGTGCAG | 4200 fluorescence intensity (a.u.) |
| GCACGCCGTTCCATTCCAAGTCAACGTGACAAACCAACCGCGGAGTCACCTAGTGCAG | 3380 fluorescence intensity (a.u.) |
| GTTGCAGCGTCACGCTTTGCGTACTTGTGCTTGTGGGCATCGGAGTCACCTAGTGCAG | 5800 fluorescence intensity (a.u.) |
| GGTCAAGAGCGCATCCAGCATGTCGTCGTGTACCTGACCGCGGAGTCACCTAGTGCAG | 3720 fluorescence intensity (a.u.) |
| CTTCAATGAATACAAAAGAAGTGTTTTGACTACAAGTACTCGGAGTCACCTAGTGCAG | 25600 fluorescence intensity (a.u.) |
| CGGCTTGTGCACTACATGCACACGCTGCCAACTCATGTACCGGAGTCACCTAGTGCAG | 4390 fluorescence intensity (a.u.) |
| GGCGCGTGGGTTGCCCGCGACCGCGACGTGGCGTTCGTGGCGGAGTCACCTAGTGCAG | 6210 fluorescence intensity (a.u.) |
| CGCGCCGCGCCGCTGCACAAGAATCCAACCGGTGGTGGTGCGGAGTCACCTAGTGCAG | 3240 fluorescence intensity (a.u.) |
| CCCACGACCACCGGCCAGGCGTGGCCCCACATGTCATCCTCGGAGTCACCTAGTGCAG | 4510 fluorescence intensity (a.u.) |
| TACCCAAGTCGACGCAACCGGATGCTGACTACCACCCAAGCGGAGTCACCTAGTGCAG | 5040 fluorescence intensity (a.u.) |
| CGTTGCCATGTTGGCATGCCACGTGGGCAAAAGTGGCAAACGGAGTCACCTAGTGCAG | 13500 fluorescence intensity (a.u.) |
| GCGGGCGTCGTAGCCGGTGCCTGCGCTGGCGCTCCCTCCCCGGAGTCACCTAGTGCAG | 4040 fluorescence intensity (a.u.) |
| GCTTCTGCTGTGGCTGTGCTGAGCTTTCACAGTCACAGCCCGGAGTCACCTAGTGCAG | 3550 fluorescence intensity (a.u.) |
| ATGGTGATTGGGAGGGTGAATCAGAGTGACTAAAAGAAATCGGAGTCACCTAGTGCAG | 5230 fluorescence intensity (a.u.) |
| TTGCAACTAGTAGAAGATGAATTTGGTTTTATATGTTTGTCGGAGTCACCTAGTGCAG | 26200 fluorescence intensity (a.u.) |
| GCCCGCCACTTGCTGACACGACATGACCCGCGCACCAAATCGGAGTCACCTAGTGCAG | 35400 fluorescence intensity (a.u.) |
| TGCGGTTTCCCTTCTTGACCTTTCGAGTAATCAAATAACGCGGAGTCACCTAGTGCAG | 14600 fluorescence intensity (a.u.) |
| CTCCCATAGCTGTCCTTATATGGTGATCCTGATTCCACATCGGAGTCACCTAGTGCAG | 26500 fluorescence intensity (a.u.) |
| CATCCGCGTCTCTCGTCACGCCCACACCACCACCCACCAACGGAGTCACCTAGTGCAG | 4850 fluorescence intensity (a.u.) |
